The results in this text go back to PubChem BioAssay AID256 (DTP/NCI, 2004).

This assay has as its system CD2F1 mice, L1210 leukemia ip, survival T/C. The assay can be described thus: NCI In Vivo Anticancer Drug Screen. Data for tumor model L1210 Leukemia (intraperitoneal) in CD2F1 (CDF1) mice. Particulars: higher T/C = longer survival. A digest of the protocol: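 Read-out first: treated-group measurement over vehicle-control measurement, expressed as a ratio. Animals bore a transplanted tumor line and were dosed with compound or vehicle.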

Setting [1] is: T/C endpoint: mean survival time, dose: 400.0 mg/kg/injection, schedule: Q01DX001 (ip), vehicle: saline with Tween-80.
The mark [2] stands for this setting: T/C endpoint: mean survival time, dose: 400.0 mg/kg/injection, schedule: Q04DX003 (ip), vehicle: saline with Tween-80.
The mark [3] stands for this setting: T/C endpoint: mean survival time, dose: 400.0 mg/kg/injection, schedule: Q04DX002 (ip), vehicle: saline with Tween-80.
Setting [4] is: T/C endpoint: mean survival time, dose: 100.0 mg/kg/injection, schedule: Q04DX003 (ip), vehicle: saline with Tween-80.
Where [5] appears, read: T/C endpoint: mean survival time, dose: 200.0 mg/kg/injection, schedule: Q04DX003 (ip), vehicle: saline with Tween-80.
Where [6] appears, read: T/C endpoint: mean survival time, dose: 400.0 mg/kg/injection, schedule: Q01DX009 (ip), vehicle: saline with Tween-80.
[7] abbreviates: T/C endpoint: mean survival time, dose: 300.0 mg/kg/injection, schedule: Q01DX001 (ip), vehicle: saline.

The list is a part of this screen's results and no random one: it gathers tests that were run many times, whatever their T/C, doses with no T/C, and many T/C values between a quarter and a half above the control. Further doses and runs are listed elsewhere. T/C: endpoint of the treated group in % of that of the vehicle group. Some entries give survivors of the animals treated and no T/C: the source holds a T/C of zero for them, seemingly a mark for toxic or unscored doses. Some doses without a T/C left all or most animals alive at the check, yet need not have been tolerated: survival well below the control is almost never listed, so the zero probably covers shortened survival too. Survivors were counted at the toxicity check, usually on the fifth day, unless a day is given; later deaths do not show. Schedules are NCI's codes, read here as Q, the interval in days (D) or hours (H), X, the number of doses. Where survival is the endpoint, the PubChem record calls one and a half times the control and up active, and a quarter to a half above the control has no call in these data; cut-offs in other NCI protocols can differ. Some T/C values are followed by the survivors on the day toxicity was checked, most often the fifth; without a count, all were alive then.

`O=C(O)c1cccnc1[N+](=O)[O-]`: under setting [1], the survivor count was 1 of 6.

For `CCOC(=S)SCC(=O)O`, the survivor count under setting [1] was 2 of 3.

With `CC1=Nc2cc(Cl)c(Cl)cc2N(C)/C1=C/C1=C(Cl)C(=O)c2cc3c(Cl)ccc(Cl)c3cc2C1=O`, the survivor count under setting [2] was 1 of 3.

Consider `CCOc1ccccc1OC(=O)Nc1ccc(OC)cc1`, for which the survivor count (T/C endpoint: mean survival time, dose: 200.0 mg/kg/injection, schedule: Q04DX002 (ip), vehicle: saline with Tween-80) is reported as 3 of 3.

For the molecule `O=C(C=C(C(F)(F)F)C(F)(F)F)c1ccc(Br)cc1`, the survivor count is on record as 2 of 6 (T/C endpoint: mean survival time, dose: 50.0 mg/kg/injection, schedule: Q01DX009 (ip), vehicle: other); 2 of 6 (T/C endpoint: mean survival time, dose: 200.0 mg/kg/injection, schedule: Q04DX003 (ip), vehicle: other); 2 of 6 (T/C endpoint: mean survival time, dose: 400.0 mg/kg/injection, schedule: Q04DX003 (ip), vehicle: other).

With `COc1ccccc1NC(=O)Oc1ccc(Cl)cc1Cl`, the survivor count under setting [3] is given as 0 of 3.

For the molecule `C[N+]1(C)CCOC(O)(c2ccc(-c3ccccc3)cc2)C1` (stereo not drawn), where the note is “T/C endpoint: mean survival time, dose: 12.5 mg/kg/injection, schedule: Q04DX002 (ip), vehicle: saline”, the survivor count was 0 of 3.

Turning to `C/C=C/c1cc2c(c(=O)o1)C(=O)[C@@H](O)[C@H](C)O2`, under “T/C endpoint: mean survival time, dose: 200.0 mg/kg/injection, schedule: Q01DX009 (ip), vehicle: saline with Tween-80”, the survivor count was 3 of 6.

Regarding `N#[N+]c1c([O-])[nH]c2ccccc12`, the survivor count (T/C endpoint: median survival time, dose: 400.0 mg/kg/injection, schedule: Q04DX002 (ip), vehicle: saline with Tween-80) is 3 of 3.

As to `CCOC(=O)c1cn[nH]c1/N=N/N(C)C`, the T/C (T/C endpoint: mean survival time, dose: 200.0 mg/kg/injection, schedule: Q01DX001 (ip), vehicle: carboxymethylcellulose (CMC)) is 125 % of control and the T/C (T/C endpoint: mean survival time, dose: 400.0 mg/kg/injection, schedule: Q01DX001 (ip), vehicle: carboxymethylcellulose (CMC)) is 128 % of control.

As to `N#CCN(CC#N)CC#N`, the survivor count is on record as 4 of 6 (T/C endpoint: mean survival time, dose: 25.0 mg/kg/injection, schedule: Q04DX003 (ip), vehicle: saline with Tween-80); 0 of 6 (T/C endpoint: mean survival time, dose: 50.0 mg/kg/injection, schedule: Q04DX003 (ip), vehicle: saline with Tween-80); 0 of 6 under setting [4].

Take `CCCCN(CCCC)CCCN1C(=O)c2ccccc2C1=O`: the survivor count by setting is: (T/C endpoint: mean survival time, dose: 7.5 mg/kg/injection, schedule: Q01DX009 (ip), vehicle: saline) 6 of 6; (T/C endpoint: mean survival time, dose: 60.0 mg/kg/injection, schedule: Q01DX009 (ip), vehicle: saline) 3 of 6; (T/C endpoint: mean survival time, dose: 120.0 mg/kg/injection, schedule: Q01DX009 (ip), vehicle: saline) 0 of 6.

In the case of `N#Cc1ccc(CCl)cc1`, for the setting “T/C endpoint: mean survival time, dose: 200.0 mg/kg/injection, schedule: Q01DX009 (ip), vehicle: Klucel (hydroxypropylcellulose) (HPC)”, the survivor count was 3 of 3.

As to `CC1(C)C2CCC1(C)C(OCCCN=C(N)CSS(=O)(=O)O)C2` (stereo not drawn), the survivor count was 0 of 3 (T/C endpoint: mean survival time, dose: 37.5 mg/kg/injection, schedule: Q04DX002 (ip), vehicle: saline with Tween-80); 0 of 3 (T/C endpoint: mean survival time, dose: 75.0 mg/kg/injection, schedule: Q04DX002 (ip), vehicle: saline with Tween-80); 0 of 3 (T/C endpoint: mean survival time, dose: 150.0 mg/kg/injection, schedule: Q04DX002 (ip), vehicle: saline with Tween-80).

Regarding `COC1=C(C)C(=O)c2c(c(COC(N)=O)c3n2CC2C3N2C)C1=O` (stereo not drawn), the T/C (T/C endpoint: mean survival time, dose: 2.9 mg/kg/injection, schedule: Q01DX001 (ip), vehicle: saline) was 126 % of control [2 of 2 alive] and the T/C (T/C endpoint: mean survival time, dose: 4.5 mg/kg/injection, schedule: Q01DX001 (ip), vehicle: saline) is 132 % of control.

With `Clc1n[nH]c(Cl)n1`, the survivor count is reported as 2 of 6 under setting [5] and 0 of 6 under setting [2].

As for `COc1ccc(/C=C/c2ccc3ccccc3[n+]2C)c(OC)c1OC`, the survivor count is, setting by setting: (T/C endpoint: mean survival time, dose: 20.0 mg/kg/injection, schedule: Q01DX009 (ip), vehicle: saline) 4 of 6; under setting [4], 0 of 6; under setting [5], 0 of 6; under setting [2], 0 of 6.

As to `COc1cc(N(CCCl)CCCl)c(OC)cc1/C=N\Nc1nnc(C)n1N`, the T/C is 127 % of control (T/C endpoint: mean survival time, dose: 11.0 mg/kg/injection, schedule: Q01DX015 (ip), vehicle: saline); 125 % of control (T/C endpoint: mean survival time, dose: 18.0 mg/kg/injection, schedule: Q01DX015 (ip), vehicle: saline); 138 % of control [5 of 6 alive] (T/C endpoint: mean survival time, dose: 30.0 mg/kg/injection, schedule: Q01DX015 (ip), vehicle: saline). Moreover, the survivor count (T/C endpoint: mean survival time, dose: 50.0 mg/kg/injection, schedule: Q01DX015 (ip), vehicle: saline) is 5 of 6.

Turning to `C/C=C(\C)C(=O)OC1C(C)=C2C(C1OC(=O)CCCCC)C(C)(OC(C)=O)CC(OC(=O)CCC)C1(O)C2OC(=O)C1(C)O` (stereo not drawn), the survivor count reads like this: (T/C endpoint: median survival time, dose: 4.0 mg/kg/injection, schedule: Q01DX005 (ip), vehicle: Klucel (hydroxypropylcellulose) (HPC)) 0 of 6; (T/C endpoint: median survival time, dose: 8.0 mg/kg/injection, schedule: Q01DX005 (ip), vehicle: Klucel (hydroxypropylcellulose) (HPC)) 0 of 6.

In the case of `CC(=O)c1ccc[n+](C)c1`, under “T/C endpoint: mean survival time, dose: 400.0 mg/kg/injection, schedule: Q04DX003 (ip), vehicle: saline”, the survivor count was 1 of 6.

On to `CC(C)(O)C(Cl)S(=O)c1ccccc1` (stereo not drawn), for which the survivor count (T/C endpoint: mean survival time, dose: 126.0 mg/kg/injection, schedule: Q04DX002 (ip), vehicle: saline with Tween-80) is 6 of 6.

As to `CCOC(=O)N1C2c3ccccc3C(c3ccccc32)N1C(=O)OCC`, the survivor count under setting [6] is listed as 5 of 6.

On to `COC1NC(=O)NC(=O)C1=[N+]=[N-]` (stereo not drawn), for which the T/C by setting is: (T/C endpoint: mean survival time, dose: 5.0 mg/kg/injection, schedule: Q01DX009 (ip), vehicle: saline with Tween-80) 135 % of control; (T/C endpoint: mean survival time, dose: 6.6 mg/kg/injection, schedule: Q01DX009 (ip), vehicle: saline with Tween-80) 127 % of control; (T/C endpoint: mean survival time, dose: 10.0 mg/kg/injection, schedule: Q01DX009 (ip), vehicle: saline with Tween-80, evaluated on day 20) 146 % of control; (T/C endpoint: mean survival time, dose: 10.0 mg/kg/injection, schedule: Q01DX009 (ip), vehicle: saline with Tween-80, evaluated on day 30) 142 % of control. In addition, the survivor count is listed as 3 of 6 (T/C endpoint: mean survival time, dose: 15.0 mg/kg/injection, schedule: Q01DX009 (ip), vehicle: saline with Tween-80); 0 of 6 under setting [4]; 0 of 6 under setting [5]; 0 of 6 under setting [2].

Turning to `CCCCCCCCCCCCSC#N`, the survivor count by setting is: (T/C endpoint: mean survival time, dose: 400.0 mg/kg/injection, schedule: Q04DX002 (ip), vehicle: Klucel (hydroxypropylcellulose) (HPC)) 2 of 3; under setting [3], 3 of 3.

Regarding `COc1ccc2[nH]c3cc(Cl)ccc3c(=O)c2c1`, the survivor count (T/C endpoint: mean survival time, dose: 200.0 mg/kg/injection, schedule: Q01DX001 (ip), vehicle: saline with Tween-80) is given as 6 of 6.

In the case of `BrC1(C2(Br)N(c3ccccc3)CCN2c2ccccc2)N(c2ccccc2)CCN1c1ccccc1`, the survivor count is, setting by setting: (T/C endpoint: mean survival time, dose: 75.0 mg/kg/injection, schedule: Q01DX001 (ip), vehicle: saline) 2 of 6; (T/C endpoint: mean survival time, dose: 150.0 mg/kg/injection, schedule: Q01DX001 (ip), vehicle: saline) 0 of 6; under setting [7], 0 of 6.

Turning to `CSc1ccc(C)cn1` (tested in a mixture with another compound), the survivor count under setting [6] was 0 of 6.

In the case of `CO[C@]12[C@@H](COC(=O)NCCO)C3=C(C(=O)C(C)=C(N)C3=O)N1C[C@@H]1[C@H]2N1C` (stereo partly drawn), the T/C (T/C endpoint: mean survival time, dose: 25.0 mg/kg/injection, schedule: Q01DX009 (ip), vehicle: saline) was 125 % of control; the T/C (T/C endpoint: mean survival time, dose: 100.0 mg/kg/injection, schedule: Q01DX009 (ip), vehicle: saline) was 143 % of control; the T/C (T/C endpoint: mean survival time, dose: 150.0 mg/kg/injection, schedule: Q01DX001 (ip), vehicle: carboxymethylcellulose (CMC)) was 148 % of control; the T/C (T/C endpoint: mean survival time, dose: 300.0 mg/kg/injection, schedule: Q01DX001 (ip), vehicle: carboxymethylcellulose (CMC)) is 142 % of control; the T/C under setting [7] is 135 % of control.

As for `CCCCCC(C[N+](C)(C)C)C(O)/C=C\c1ccccc1` (stereo not drawn), the survivor count runs as follows: under setting [4], 0 of 6; under setting [5], 0 of 6; under setting [2], 0 of 6.
